Test results taken from patent US20230124467A1, “COMPOUNDS AND METHODS FOR TREATING DISEASES AND/OR CONDITIONS CAUSED BY CORONAVIRUS” (priority 2020, published 2023).
Structures can show the parent of a compound that is named as a salt. Some of these results come from one statement about several compounds together. Some compounds share one range, which may span the group rather than tell each member.

System: SARS-CoV-2
Assay: In vitro antiviral assay, development of cytopathic effects (CPE), Example 1
Format: cell-based
Conditions: 20 PFU SARS-CoV-2 per well, Vero-E6, 72 h, 4 replicates

CCN(CCO)CCCC(C)Nc1ccnc2cc(Cl)ccc12 (centres unmarked) [Hydroxychloroquine]
antiviral effects (concentration at which shown): 2.5 to 25 µM

CCCc1nc(C)c2c(=O)[nH]c(-c3cc(S(=O)(=O)N4CCN(CC)CC4)ccc3OCC)nn12 [Vardenafil hydrochloride trihydrate, 2-[2-ethoxy-5-(4-ethylpiperazin-1-yl)sulfonylphenyl]-5-methyl-7-propyl-3H-imidazo[5,1-f][1,2,4]triazin-4-one]
antiviral effects (concentration at which shown): 2.5 to 25 µM
